Laboratory results: PubChem BioAssay AID743454 (Peter MacCallum Cancer Centre, 2014)
Assay: 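Knock-downs lowering viability or raising caspase 3/7 activity in vorinostat-treated resistant cells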 (primary screen). System: human HCT116-VR colon cancer cells, selected for vorinostat resistance. Reagent: siRNA pool against human genes, 40 nM siRNA pool. Duration: vorinostat for 24 h, read-out about 72 h after transfection. Treatment: vorinostat at 2.5 µM final. Detection: 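Two measures, CellTiter-Fluor viability and luminescent caspase 3/7 activity, each as fold change against same-plate mock wells, mean of duplicates, then screen-wide robust z-score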. Direction: viability robust z-score: higher = more viable cells than screen typical; caspase robust z-score: higher = more caspase 3/7 activity than screen typical. Call rule: 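Hits are knock-downs in viability class RV1/RV2 or caspase class CA1/CA2, excluding ones that killed cells in the no-drug cell-count arm; hits then retested with single siRNAs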.
Shown is an unselected part of about 18,000 reagents tested. 450 of all reagents (2.5%) were called active. 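Single biological run; no consistent viability z cut-off exists, so the class columns, not z-scores, define the calls.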 Unmarked entries are inactive.

With KLK6, what was measured?
viability hit class: no change; caspase hit class: no change; viability robust z-score: -1.02; caspase robust z-score: 3.76

What did the screen give for TSSK1B?
viability hit class: no change; caspase hit class: no change; viability robust z-score: 0.36; caspase robust z-score: 1.8

With BIK, what does the deposit list?
viability hit class: no change; caspase hit class: no change; viability robust z-score: 0.8; caspase robust z-score: -0.02

With TYW3, what was measured?
viability hit class: no change; caspase hit class: no change; viability robust z-score: -0.8; caspase robust z-score: -0.96

For RARS1, what does the deposit list?
viability hit class: no change; caspase hit class: no change; viability robust z-score: -0.86; caspase robust z-score: -0.98

Which result is listed for ANKRD42?
viability hit class: no change; caspase hit class: no change; viability robust z-score: 0.28; caspase robust z-score: 0.71

With KRT78, what was measured?
viability hit class: no change; caspase hit class: no change; viability robust z-score: 0.98; caspase robust z-score: 1.41

For DHPS, what was measured?
viability hit class: no change; caspase hit class: no change; viability robust z-score: 0.78; caspase robust z-score: 3.96

Which result is listed for TENM2?
viability hit class: no change; caspase hit class: no change; viability robust z-score: -0.42; caspase robust z-score: 0.48

How did the screen score IRX1?
viability hit class: no change; caspase hit class: no change; viability robust z-score: -0.11; caspase robust z-score: -0.55

Already shown: 2 of the entries above.
KLK6: viability hit class = no change; caspase hit class = no change; viability robust z-score = -1.02; caspase robust z-score = 3.76
TSSK1B: viability hit class = no change; caspase hit class = no change; viability robust z-score = 0.36; caspase robust z-score = 1.8

The listing continues:
For MITD1, how do the results read?
viability hit class: no change; caspase hit class: no change; viability robust z-score: 1.26; caspase robust z-score: 0.22

With CGB5, how do the results read?
viability hit class: no change; caspase hit class: no change; viability robust z-score: -0.19; caspase robust z-score: -0.7

Which result is listed for ZNF8?
viability hit class: no change; caspase hit class: no change; viability robust z-score: 0.07; caspase robust z-score: 1.71

What is on record for MINDY1?
viability hit class: no change; caspase hit class: no change; viability robust z-score: 1.16; caspase robust z-score: 0.26

With FRG2, what does the deposit list?
viability hit class: no change; caspase hit class: no change; viability robust z-score: 0.8; caspase robust z-score: 0.07

For SLC39A4, what does the deposit list?
viability hit class: no change; caspase hit class: no change; viability robust z-score: 1.5; caspase robust z-score: 0.5

With ASGR2, what does the deposit list?
viability hit class: no change; caspase hit class: no change; viability robust z-score: -1; caspase robust z-score: -1.12

For CLCNKA, what does the deposit list?
viability hit class: no change; caspase hit class: no change; viability robust z-score: 0.32; caspase robust z-score: -0.67

What is on record for TDRD10?
viability hit class: no change; caspase hit class: no change; viability robust z-score: 0.1; caspase robust z-score: -0.15

For UPB1, how do the results read?
viability hit class: no change; caspase hit class: no change; viability robust z-score: 0.64; caspase robust z-score: 0.52

How did the screen score FAM180A?
viability hit class: no change; caspase hit class: no change; viability robust z-score: 1.46; caspase robust z-score: -0.86
